Measurements as given in patent US10662182B2, “Microbiocidal thiazole derivatives” (SYNGENTA PARTICIPATIONS AG, priority 2016, dated 2020).
Some entries share one result that the patent states for a list of compounds.

Experiments:
Alternaria solani = Alternaria solani / tomato / leaf disc (early blight); assay type: in vivo; details: 200 ppm in the formulation; tomato leaf disks cv. Baby; compared to untreated checks
[1] = system: Blumeria graminis f. Sp. Tritici (Erysiphe graminis f. Sp. Tritici); experiment: Blumeria graminis f. sp. tritici / wheat / leaf disc preventative (powdery mildew on wheat); assay type: in vivo; details: 200 ppm in the formulation; wheat leaf segments cv. Kanzler; compared to untreated checks
From the text: Blumeria graminis f. Sp. Tritici (Erysiphe graminis f. Sp. Tritici)/Wheat/Leaf Disc Preventative (Powdery Mildew on Wheat) Wheat leaf segments cv. Kanzler are placed on agar in a multiwell plate (24-well format) and sprayed with the test compound formulated with DMSO and Tween20 and diluted in water. The leaf disks are inoculated by shaking powdery mildew infected plants above the test plates 1 day after application.

[2] = system: Botrvotinia fuckeliana (Botrvtis cinerea); experiment: Botryotinia fuckeliana / liquid culture (gray mould); assay type: cell-based; details: 200 ppm in the formulation, inhibition of growth determined photometrically, compared to untreated checks
Procedure: Botrvotinia fuckeliana (Botrvtis cinerea)/Liquid Culture (Gray Mould) Conidia of the fungus from cryogenic storage are directly mixed into nutrient broth (Vogels broth). After placing a (DMSO) solution of test compound into a microtiter plate (96-well format), the nutrient broth containing the fungal spores is added. The test plates are incubated at 24° C. and the inhibition of growth is determined photometrically 3-4 days after application.

Gaeumannomyces graminis = Gaeumannomyces graminis / liquid culture (take-all of cereals); assay type: cell-based; details: 200 ppm in the formulation, inhibition of growth determined photometrically, compared to untreated control
Procedure: (§1) Gaeumannomyces graminis/Liquid Culture (Take-All of Cereals) Mycelial fragments of the fungus from cryogenic storage were directly mixed into nutrient broth (PDB potato dextrose broth). After placing a (DMSO) solution of test compound into a microtiter plate (96-well format), the nutrient broth containing the fungal spores is added. The test plates are incubated at 24° C. and the inhibition of growth is determined photometrically 4-5 days after application.

[3] = system: Glomerella lacenarium (Colletotrichum lacenarium); experiment: Glomerella lagenarium / liquid culture (anthracnose); assay type: cell-based; details: 200 ppm in the formulation, inhibition of growth measured photometrically, compared to untreated checks
Procedure: as §1, with “Glomerella lacenarium (Colletotrichum lacenarium)/Liquid” for “Gaeumannomyces graminis/Liquid”, “(Anthracnose) Conidia” for “(Take-All of Cereals) Mycelial fragments”, “are” for “were”, “measured” for “determined”, “3 to 4” for “4-5”

[4] = system: Monocraphella nivalis (Microdochium nivale); experiment: Monographella nivalis / liquid culture (foot rot cereals); assay type: cell-based; details: 200 ppm in the formulation, inhibition of growth determined photometrically, compared to untreated checks
Procedure: as §1, with “Monocraphella nivalis (Microdochium nivale)/Liquid” for “Gaeumannomyces graminis/Liquid”, “(Foot Rot” for “(Take-All of”, “Conidia” for “Mycelial fragments”, “are” for “were”

[5] = system: Mycosphaerella raminicola (Septoria tritici); experiment: Mycosphaerella graminicola / liquid culture (Septoria blotch); assay type: cell-based; details: 200 ppm in the formulation, inhibition of growth determined photometrically, compared to untreated checks
Procedure: as §1, with “Mycosphaerella raminicola (Septoria tritici)/Liquid” for “Gaeumannomyces graminis/Liquid”, “(Septoria blotch) Conidia” for “(Take-All of Cereals) Mycelial fragments”, “are” for “were”, “4 to 5” for “4-5”

[6] = system: Puccinia recondita f. Sp. Tritici; experiment: Puccinia recondita f. sp. tritici / wheat / leaf disc preventative (brown rust); assay type: in vivo; details: 200 ppm in the formulation; wheat leaf segments cv. Kanzler; compared to untreated checks
Pyrenophora teres = Pyrenophora teres / barley / leaf disc preventative (net blotch); assay type: in vivo; details: 200 ppm of the formulation; barley leaf segments cv. Hasso; compared to untreated checks
Procedure: Pyrenophora teres/Barley/Leaf Disc Preventative (Net Blotch) Barley leaf segments cv. Hasso are placed on agar in a multiwell plate (24-well format) and sprayed with the test compound formulated with DMSO and Tween20 and diluted in water. The leaf segments are inoculated with a spore suspension of the fungus 2 days after application. The inoculated leaf segments are incubated at 20° C. and 65% rh under a light regime of 12 h light/12 h darkness in a climate cabinet and the activity of a compound is assessed as disease control compared to untreated when an appropriate level of disease damage appears in untreated check leaf segments (5 to 7 days after application).

[7] = system: Mycosphaerella arachidis (Cercospora arachidicola); experiment: Mycosphaerella arachidis / liquid culture (early leaf spot); assay type: cell-based; details: 200 ppm in the formulation, inhibition of growth determined photometrically, compared to untreated checks
Procedure: as §1, with “Mycosphaerella arachidis (Cercospora arachidicola)/Liquid” for “Gaeumannomyces graminis/Liquid”, “(Early Leaf Spot) Conidia” for “(Take-All of Cereals) Mycelial fragments”, “are” for “were”

Measured: disease control

CC1(C)C2CCCC2C1NC(=O)c1nc(Nc2cc(F)cc(F)c2)sc1Cl (centres unmarked) [I.y.1]
not listed: [7]
at least 80%: all other assays above

Cc1sc(Nc2cc(F)cc(F)c2)nc1C(=O)NC(C)c1cc(-c2ccccc2I)no1 (centres unmarked) [I.h.3]
at least 80%: Gaeumannomyces graminis | [3] | [4] | [5] | Pyrenophora teres

Cc1sc(Nc2cc(F)cc(F)c2)nc1C(=O)NC1CC(OCC(C)C)C1(C)C (centres unmarked) [I.q.3]
at least 80%: [1] | Gaeumannomyces graminis | [3] | [4] | [7] | [5]

Cc1sc(Nc2cc(F)cc(F)c2)nc1C(=O)NC1CC2(C)CCCC12 (centres unmarked) [I.x.3]
at least 80%: Gaeumannomyces graminis | [3] | [4] | [7] | [5]

Cc1sc(Nc2cc(F)cc(F)c2)nc1C(=O)NCC1(C(F)(F)F)CC1 [I.be.3]
at least 80%: [1] | [3] | [5] | Pyrenophora teres

Cc1sc(Nc2cc(F)cc(F)c2)nc1C(=O)NC1CC(C)(C)CC(C)(C)C1 [I.ag.3]
at least 80%: [2] | Gaeumannomyces graminis | [3] | [4] | [5]

Cc1sc(Nc2cc(F)cc(F)c2)nc1C(=O)NC1CC2(C)CCCCC12 (centres unmarked) [I.ad.3]
not listed: Alternaria solani | [2] | [7]
at least 80%: all other assays above

Cc1sc(Nc2cc(F)cc(F)c2)nc1C(=O)NC1CC2(CCCCC2)C1 [I.v.3]
at least 80%: [2] | Gaeumannomyces graminis | [3] | [4] | [7] | [5]

Cc1sc(Nc2cc(F)cc(F)c2)nc1C(=O)NC(C)C1CCCCC1 (centres unmarked) [I.e.3, N-(1-cyclohexylethyl)-2-(3,5-difluoroanilino)-5-methyl-thiazole-4-carboxamide]
at least 80%: Alternaria solani

Cc1sc(Nc2cc(F)cc(F)c2)nc1C(=O)NC1CCC12CCC2 (centres unmarked) [I.r.3, 2-(3,5-difluoroanilino)-5-methyl-N-spiro[3.3]heptan-7-yl-thiazole-4-carboxamide]
at least 80%: Alternaria solani

Cc1sc(Nc2cc(F)nc(F)c2)nc1C(=O)NC1CCC12CCCC2 (centres unmarked) [I.s.43, 2-[(2,6-difluoro-4-pyridyl)amino]-5-methyl-N-spiro[3.4]octan-3-yl-thiazole-4-carboxamide]
at least 80%: Alternaria solani

Cc1sc(Nc2cc(F)cc(F)c2)nc1C(=O)NC1C2CCCOC2C1(C)C (centres unmarked) [I.ae.3]
not listed: Alternaria solani | [2]
at least 80%: all other assays above

Cc1sc(Nc2cc(F)cc(F)c2)nc1C(=O)NC1CC12CC2 (centres unmarked) [I.bb.3, 2-(3,5-difluoroanilino)-5-methyl-N-spiro[2.2]pentan-2-yl-thiazole-4-carboxamide]
at least 80%: Alternaria solani
